# Measurements taken from patent US20040106135A1, “Assay for PPAR ligand dependent gene modulation” (priority 2002, published 2004).
# For at least one compound, name, drawing or mass did not settle the structure. Some entries share one result that the patent states for a list of compounds.
# How the values were obtained:
# [1] = Serum triglyceride levels in fat-fed hamsters; type: in vivo, hamster; conditions: single dose, 8, 16 and 48 hours
# Description: Blood was sampled at 8, 16 and 48 hours following a single drug treatment for total triglyceride analysis. The mean levels (+/−SEM) for 3 animals per group are shown. The “*” indicates a statistically significant difference with respect to control (p<0.01) by Student's t-test. Animal studies: All procedures performed in this study were approved by the Animal Care and Use committee, and conform to the guide for the Care and Use of Laboratory Animals Act. Male Syrian Golden hamsters (Charles River, Wilmington Mass.) weighing 120-140 g, were used in the study. Animals were kept on a 12-hour light/dark cycle and allowed free access to normal chow and water. The animals were divided into groups according to weight, and fed either an high fat diet (0.5% cholesterol, 5% coconut oil) (N=3) or normal chow diet (N=3). […] At intervals of 0, 8, 16 and 48 hr animals were anesthetized with CO2. Blood was collected by cardiac puncture into EDTA containing tubes; plasma was isolated for immediate analysis of triglycerides by the Dade Clinical Analyser®. Animals were then euthanized with CO2. The liver and kidneys were collected, flash frozen in liquid nitrogen and stored at −80° C. for future gene expression analysis.
# [2] = test system: PDK4 mRNA in HEK293 cells; test: PDK4 mRNA induction in HEK293 cells by PPAR modulators (Taqman PCR); type: cell-based, human; conditions: 4 hours; 100 micromolar fenofibric acid, 10 micromolar rosiglitazone, 10 micromolar GW501516; relative to CYCD1 mRNA
# Description: HEK293 cells were treated for 4 hours with the following PPAR modulators:
# 100 micromolar fenofibric acid (a PPARα selective modulator), 10 micromolar rosiglitazone (a PPARγ selective modulator) and 10 micromolar GW501516 (a PPARβ(δ) selective modulator; Oliver et al., (2001) Proc. Natl. Acad. Sci. U.S.A. 98:5306-11). PDK4 mRNA was measured by Taqman PCR analysis. The PDK4 expression levels are expressed relative to CYCD1 mRNA used as a normalization control.
# [3] = test system: PDK-4 mRNA in HK-2 cells (endogenous PPARα); test: PDK-4 mRNA induction in HK-2 cells (real-time RT-PCR); type: cell-based, human; conditions: 24 hours, maximal induction by GW9578 = 100%
# Description: (§1) Values were normalized to 18S rRNA levels.
# EC50 values were determined for PDK-4 mRNA induction by quantitative PCR under conditions used to generate the data shown in FIG. 2. EC50 values in the transactivation assays were determined by transfection of an expression plasmid encoding a GAL4-hPPARα chimera into cells co-expressing a luciferase reporter gene under the transcriptional control of GAL4 upstream activating elements.
# Cell culture: The following cell lines were obtained from American Type Culture Collection (ATCC) and cultured in the recommended medium for each cell type: HepG2, HK-2, Caki-1, LNCaP (CloneFGC), SW872, and ACHN. […]
# (§2) Real-time PCR: Fluorescence-based real-time PCR was performed essentially as described (Abbaszade et al., (1999) J. Biol. Chem. 274:23443-23450). […] Taqman-based real-time PCR expression profiling was performed using 25 ng of each cDNA according to the manufacturer's (PE Biosystems) instructions with fluorescence being monitored in real-time with an ABI Prism 7700 (PE Biosystems). Relative expression levels were determined essentially as described (Gibson et al., (1996) Genome Res. 6:995-1001) using standard curves for each transcript. Relative abundance was then determined from these standard curves, subtracting mRNA levels obtained from negative control reactions performed in the absence of reverse transcriptase, and normalized to 18S rRNA levels. […]
# [4] = test system: ADRP mRNA in HK-2 cells (endogenous PPARα); test: ADRP mRNA induction in HK-2 cells (real-time RT-PCR); type: cell-based, human; conditions: highest dose tested 300 μM
# Description: as §1
# Cell culture: The following cell lines were obtained from American Type Culture Collection (ATCC) and cultured in the recommended medium for each cell type: HepG2, HK-2, Caki-1, LNCaP (CloneFGC), SW872, and ACHN. PPARα compounds were prepared to a 500× stock in DMSO; corresponding control cells received an equal volume of vehicle (0.2% v/v).
# as §2
# PPARα versus PPARγ = conditions: Willson et al. (2000); cited from earlier work
SMILES,Change of triglyceride levels compared with the control group [1],PDK4 mRNA induction in HEK293 cells [2],Efficacy of PDK-4 induction compared with GW9578 [3],Saturation of ADRP induction [4],Selectivity for PPARα versus PPARγ (PPARα versus PPARγ)
"CC(C)OC(=O)C(C)(C)Oc1ccc(C(=O)c2ccc(Cl)cc2)cc1 [Fenofibrate, fenofibrate]",neither gemfibrozil nor fenofibrate altered triglyceride levels to a statistically significant degree,,,,
CN(CCOc1ccc(CC2SC(=O)NC2=O)cc1)c1ccccn1 (stereo not drawn) [rosiglitazone],,induced,,,
"CC(C)(Oc1ccc(C(=O)c2ccc(Cl)cc2)cc1)C(=O)O [Fenofibric Acid, fenofibric acid]",,induced,lower efficacy than GW9578,did not appear to saturate,10-20 fold
